According to patent US20140302012A1, “Combination Therapies for Treating Hematologic Malignancies Using Pyridopyrimidinone Inhibitors of PI3K/mTOR with Bendamustine and/or Rituximab” (priority 2011, published 2014):
Some entries share one result that the patent states for a list of compounds.

Tested on: human WSU-DLCL2
Assay: Antitumor activity against human WSU-DLCL2 xenografts in SCID female mice
Format: in vivo
Settings: Compound A 20 mg/kg per injection (total 240) PO, days 20-31
Protocol: To evaluate the antitumor activity of Bendamustine in combination with the dual pan-PI3K/mTOR inhibitor Compound A, experiments were conducted using female SCID mice bearing human WSU-DLCL2 xenografts. In this study, Bendamustine at 3.5 and 7 mg/kg was tested in combination with Compound A at 20 mg/kg.
CB17/1CR-Prkdc severe combined immunodeficiency (SCID)/Crl mice, at 8-10 weeks old, were bred at Charles River France (Domaine des Oncins, 69210 L'Arbreste, France) from strains obtained from Charles River, USA. Mice were over 18 g at start of treatment after an acclimatization time of at least 5 days. […] They were housed on a 12 hours light/dark cycle. Environmental conditions including animal maintenance, room temperature (22° C.±2° C.), relative humidity (55%±15%) and lighting times were recorded by the supervisor of laboratory animal sciences and welfare (LAW) and the records are archived. […]
The animals required to begin a given experiment were pooled and implanted monolaterally on day 0. […] Tumors were measured with a calliper 2 to 3 times weekly until final sacrifice for sampling time, tumor reached 2000 mm^3 or until the animal died (whichever comes first). Solid tumor volumes were estimated from two-dimensional tumor measurements and calculated according to the following equation: […]

SMILES: CCn1c(=O)c(-c2ccn[nH]2)cc2c(C)nc(N)nc21 [Compound A, 2-amino-8-ethyl-4-methyl-6-(1H-pyrazol-5-yl)pyrido[2,3-d]pyrimidin-7(8H)-one]
- Median ΔT/ΔC in % day 31: > 40%
